Several values for one entry are separate records, joined by “and”; a condition that tells them apart may be missing. Identical values can stand only once. Hit rate of the full screen: of about 580,000 compounds, about 6,100 (1.1%) were called active. This list was built around the results that the source calls inconclusive (neither active nor inactive); the mix of calls is not that of the screen. Calls come from the whole dose curve; as a rule, active = well fitted inhibition curve with a large enough effect; inconclusive = small, poorly fitted or top-dose-only effect, or another doubt; inactive = no such curve, though single readings can be large or run the other way. A potency beside an inconclusive call is a rough fit, not a confirmed value.
Each compound was assayed against Polyunsaturated fatty acid lipoxygenase ALOX12 (Homo sapiens) (UniProt P18054) (assay: Primary qHTS assay for inhibitors of human arachidonate 12S-lipoxygenase (ALOX12): Round 2). Conditions: purified 12hLO, xylenol orange hydroperoxide absorbance; activity change, negative = inhibition: at 108 µM (top of the series) unless noted.
Summary of the method: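 Purified human 12hLO (150 nM final) in 25 mM Hepes, 0.01% Triton X-100, pH 7.0 was preincubated 15 min at room temperature with compound. Then 40 uM arachidonic acid was added, 30 min. Hydroperoxide was read by Fe-XO absorbance ratio 573/405 nm.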
% is set by controls: 0 for no effect and ±100 for the full control effect; potency is the fitted concentration of half-maximal effect.

Amino acid sequences for entries named in this document (tags omitted).
UniProt P18054, whole entry, looked up: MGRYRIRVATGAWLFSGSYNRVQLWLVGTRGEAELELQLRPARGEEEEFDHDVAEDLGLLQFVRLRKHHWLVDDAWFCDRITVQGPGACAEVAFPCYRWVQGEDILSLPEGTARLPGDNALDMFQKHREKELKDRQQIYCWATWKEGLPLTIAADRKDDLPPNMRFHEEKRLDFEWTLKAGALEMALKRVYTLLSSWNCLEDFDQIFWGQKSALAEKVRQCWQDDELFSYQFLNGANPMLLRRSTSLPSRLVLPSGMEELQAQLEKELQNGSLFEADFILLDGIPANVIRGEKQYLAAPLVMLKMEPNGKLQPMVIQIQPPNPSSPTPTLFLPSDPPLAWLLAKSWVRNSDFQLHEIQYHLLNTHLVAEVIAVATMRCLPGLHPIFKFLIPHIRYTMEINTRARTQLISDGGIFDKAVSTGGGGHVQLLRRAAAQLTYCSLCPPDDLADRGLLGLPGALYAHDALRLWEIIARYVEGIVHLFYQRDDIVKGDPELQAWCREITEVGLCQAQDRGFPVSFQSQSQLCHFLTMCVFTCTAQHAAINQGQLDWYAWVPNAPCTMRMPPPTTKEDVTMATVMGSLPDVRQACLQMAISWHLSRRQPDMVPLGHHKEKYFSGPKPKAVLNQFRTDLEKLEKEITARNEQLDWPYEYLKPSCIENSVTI

SMILES	Potency	activity change, negative = inhibition
O=C(NCC(c1cccs1)N1CCOCC1)c1ccccc1NS(=O)(=O)c1ccc(Cl)cc1 (stereo unspecified)	inconclusive: 35.5 µM [inhibitor, partial curve, poor fit]	–
Nc1nc2c(-c3ccc([N+](=O)[O-])cc3)nnn2c2ccccc12	inconclusive: 158 µM [inhibitor, single point]	–
O=C(OCc1cn([C@@H]2CN(CC3CCCCC3)[C@@H](c3ccccc3)C[C@H]2O)nn1)c1ccccc1	–	inactive: -5.12%
Cc1c(-c2ccccc2)c(P(=O)(N2CCOCC2)N2CCOCC2)c2ccccn12	inconclusive: 35.5 µM [inhibitor, single point]	–
COC(=O)[C@@]12C[C@@H](CC(=O)NCCc3ccccc3OC)C(=O)N(Cc3ccco3)C1=CCC(C)(C)C2	–	inactive: -12.2%
O=C(O)c1[nH]c2ccccc2c1NS(=O)(=O)c1ccc(F)cc1	–	inactive: 11.5%
CC(C)C[C@H]1COc2cc(Br)ccc2S(=O)(=O)N1Cc1ccc(Cl)cc1	inconclusive: 141 µM [inhibitor, single point]	–
CC1C(=O)C2(CCCCC2)C(=O)OC1c1ccc(Cl)cc1 (stereo unspecified)	inconclusive: 31.6 µM [inhibitor, partial curve]	–
CCOC(=O)C(C(=O)Nc1cccc(C)n1)C1CCCCC1 (stereo unspecified)	–	inactive: 0%
CC(=O)O	–	inactive: -3.18%
CSc1ccccc1NC(=O)c1ccccc1SC	inconclusive: 0.224 µM [inhibitor, full curve, poor fit]	–
Oc1ccc(/C=N/NC(=S)Nc2cccnc2)c(O)c1	inconclusive: 79.4 µM [inhibitor, partial curve, poor fit]	–
COc1ccc(CCNC(=O)c2cc(C)oc2C)cc1	–	inactive: 0%
O=C(CN1C(=O)/C(=C2/SC(=S)N(CCS(=O)(=O)O)C2=O)c2ccccc21)Nc1cccc(Br)c1	inconclusive: 44.7 µM [inhibitor, partial curve, poor fit]	–
O=C(CSc1ccccc1Br)c1ccc2c(c1)OCCO2	–	inactive: 67.2%
CC(C)c1ccc(/C=C/c2ccc(=O)n(C)n2)cc1	inconclusive: 39.8 µM [inhibitor, single point]	–
Cc1cc2cc(NS(=O)(=O)c3cccs3)ccc2[nH]1	inconclusive: 50.1 µM [inhibitor, single point]	–
CCc1cc(-c2n[nH]c(=S)n2-c2cccc(C)c2)cs1	active: 31.6 µM	–
O=C(O)CCCNC(=O)Cn1ccc2ccc(Br)cc21	–	inactive: -9.07%
CCOP(=O)(OCC)/C(=N/OC(=O)c1ccc(Cl)cc1Cl)C(N)=O	inconclusive: 89.1 µM [inhibitor, partial curve, poor fit]	–
CCN(CC)c1ccc(/C=N/NC(=S)NCc2ccccc2)cc1	inconclusive: 17.8 µM [inhibitor, partial curve, poor fit]	–
CCOCCOC(=O)c1[nH]c2c(c1C)C(=O)CC(c1cc(OC)c(OC)c(OC)c1)C2 (stereo unspecified)	–	inactive: 0%

SMILES	Potency	activity change, negative = inhibition
CCOC(=O)N1CCc2c(sc(NCc3cccc(F)c3)c2C(=O)Nc2ccccc2OCC)C1	inconclusive: 25.1 µM [inhibitor, partial curve]	–
Cc1ccc(N2CC(NC(=O)Cc3cccs3)CC2=O)cc1C (stereo unspecified)	inconclusive: 63.1 µM [inhibitor, partial curve, poor fit]	–
COc1ccc(/C=C(/C(=O)c2ccc(Cl)cc2Cl)n2cncn2)cc1	inconclusive: 35.5 µM [inhibitor, partial curve, poor fit]	–
CC(C)n1c(-c2ccccc2F)n[nH]c1=S	inconclusive: 28.2 µM [inhibitor, partial curve]	–
O=C(/C=C/c1ccco1)NCC1(c2ccccc2)CCCC1	inconclusive: 44.7 µM [inhibitor, partial curve, poor fit]	–
COc1ccc(CCNC(=O)Nc2ccc([N+](=O)[O-])cc2)cc1OC	inconclusive: 79.4 µM [inhibitor, partial curve, poor fit]	–
Cn1c(=O)c2[nH]c(N=NN3CCCCC3)nc2n(C)c1=O	–	inactive: -10.8%
CC1CCc2nc(NC(=O)CN3CCOCC3)sc2C1 (stereo unspecified)	inconclusive: 31.6 µM [inhibitor, partial curve, poor fit]	–
COC(=O)c1cc2c(C)c(C)c3ccccn3c-2c1C(=O)OC	–	inactive: 0%
CCCC[N+](C)(CC#Cc1ccc(C#CC[N+](C)(CCCC)CCCC)cc1)CCCC	inconclusive: 1.58 µM [inhibitor, full curve, poor fit]	–
Cc1ccccc1[C@H]1[C@@H](C(=O)NC(CO)CO)C[C@@](C)(C(=O)O)N1C	–	inactive: -3.19%
CCCN(CCC)CCN1C(=O)C2C(C(=O)Nc3ccc(C)cc3)C3C=CC2(O3)C1C(=O)NC1CCCCC1 (stereo unspecified)	inconclusive: 50.1 µM [inhibitor, partial curve, poor fit]	–
CCCc1c(C(=O)N/N=C(\C)c2ccccc2O)nnn1-c1nonc1N	inconclusive: 0.708 µM [inhibitor, full curve, poor fit]	–
Cn1c(/N=C/c2ccc3c(c2)OCO3)nc2ccccc21	–	inactive: 6.8% [at 57.4 µM]
CCN1C(=O)[C@H]2[C@@H](c3ccc(-c4ccc(F)cc4)cc3)N[C@@](C)(C(=O)OC)[C@H]2C1=O	–	inactive: -9.2%
Cc1noc(NS(=O)(=O)c2ccc(NC(=O)CSc3n[nH]c(-c4ccccc4)n3)cc2)c1C	inconclusive: 39.8 µM [inhibitor, partial curve]	–
Cn1c(=O)c2c(nc(Cl)n2Cc2ccc(-c3ccccc3)cc2)n(C)c1=O	–	inactive: 12.2%
Oc1ccc(-c2cnns2)c(O)c1	inconclusive: 39.8 µM [inhibitor, partial curve]	–
Cc1ccc(C2=NS(=O)(=O)N(C)C(C(=O)N3CCN(c4ccccc4)CC3)=C2)cc1	–	inactive: -5.94%
CCN(Cc1ccc(OC)cc1)Cc1cc(=O)oc2c(C)cc(C)cc12	inconclusive: 50.1 µM [inhibitor, partial curve, poor fit]	–
Cc1oc2c(cc(NS(=O)(=O)c3ccc(Cl)cc3)c3ccccc32)c1C(=O)O	active: 39.8 µM	–
CC(C)(C)C1=C(C#N)C(c2ccc3c(c2)OCO3)C(C#N)=C(N)O1 (stereo unspecified)	inconclusive: 31.6 µM [inhibitor, partial curve, poor fit] and inconclusive: 50.1 µM [inhibitor, partial curve, poor fit]	–

SMILES	Potency	activity change, negative = inhibition
c1ccc2c(c1)ccc1[nH]c3c(c12)CCCC3	inconclusive: 39.8 µM [inhibitor, partial curve, poor fit]	–
Nc1ccc(C(=O)N2N=C(c3ccccc3)CC2(O)C(F)(F)F)cc1 (stereo unspecified)	–	inactive: 15%
CCOc1ccc2[nH]c3c(c2c1)CNCC3	inconclusive: 0.794 µM [inhibitor, full curve, poor fit]	–
O=C1[C@H]2[C@@H](c3ccc(C(F)(F)F)cc3)N[C@]3(CCCN(Cc4ccco4)C3=O)[C@H]2C(=O)N1Cc1ccccc1	inconclusive: 25.1 µM [inhibitor, partial curve]	–
CC(COc1cccc([N+](=O)[O-])c1)CN1CCC(C(O)(c2ccccc2)c2ccccc2)CC1 (stereo unspecified)	–	inactive: -4.32%
CCc1ccc(N(C2C=CS(=O)(=O)C2)S(=O)(=O)c2ccccc2)cc1 (stereo unspecified)	inconclusive: 141 µM [inhibitor, partial curve, poor fit]	–
COc1ccc(CN2CCC[C@]3(N[C@H](c4ccc(OC)cc4)[C@@H]4C(=O)N(Cc5ccccc5)C(=O)[C@@H]43)C2=O)cc1	inconclusive: 8.91 µM [inhibitor, full curve, poor fit]	–
C=CCn1c(-c2sccc2C)n[nH]c1=S	–	inactive: -29.3%
CCn1cc(C(=O)NCCCN(C)C)c(=O)c2cc(F)c(N3CCN(C)CC3)cc21	inconclusive: 31.6 µM [inhibitor, partial curve, poor fit]	–
Cc1cc(C)cc(NC(=O)CCS(=O)(=O)c2cc3c4c(c2)CCN4C(=O)CC3)c1	inconclusive: 112 µM [inhibitor, partial curve, poor fit]	–
CCOC(=O)c1cnc(Nc2nc3ccccc3o2)nc1CSC(=S)N(CC)CC	–	inactive: 1.22%
O=C(CNC(=O)c1cccs1)Nc1nc(-c2cccc3ccccc23)cs1	inconclusive: 126 µM [inhibitor, partial curve, poor fit]	–
CCc1ccc(OC(C)C(=O)N2CCC(c3nc4ccccc4s3)CC2)cc1 (stereo unspecified)	inconclusive: 100 µM [inhibitor, partial curve, poor fit]	–
COc1ccc(-c2cc(NC(=O)c3cccs3)n(C3CCS(=O)(=O)C3)n2)cc1 (stereo unspecified)	inconclusive: 17.8 µM [inhibitor, partial curve, poor fit]	–
COC(=O)c1ccccc1NC(=O)N1CCN(CCc2ccncc2)CC1	–	inactive: 14.5%
CCCC(=O)N1CCC1(C)C(=O)Nc1ncc(C(=O)OC)s1 (stereo unspecified)	inconclusive: 112 µM [inhibitor, partial curve, poor fit]	–
CN1CCN(NC(=O)c2cn(-c3ccccc3)nc2-c2cccc(Br)c2)CC1	inconclusive: 39.8 µM [inhibitor, partial curve, poor fit]	–
Cc1ccc(NS(=O)(=O)c2ccc3c(c2)N(C)CCO3)cc1	–	inactive: -22.2%
CCOc1ccc(-c2nc(C#N)c(NCc3ccc(Cl)cc3)o2)cc1	–	inactive: -24.4%
COc1ccc(NC(=O)c2cc(C)nc3ccccc23)cc1S(=O)(=O)Nc1ccccc1Cl	inconclusive: 89.1 µM [inhibitor, partial curve, poor fit]	–
O=C1c2ccncc2C(=O)N1Cc1cccc(Cl)c1	inconclusive: 2.82 µM [inhibitor, full curve, poor fit]	–
Cc1sc(NC(=O)c2ccccc2)c(C(c2cccs2)N2CCN(C)CC2)c1C (stereo unspecified)	inconclusive: 39.8 µM [inhibitor, partial curve, poor fit]	–
